This is an account of results in doi:10.1101/2021.09.17.460803.

These are yes or no findings as the source states them, for the method shown. Binding seen in cells or lysates may run through a third protein. Some results given as binding are weak or reduced against the parent protein; the word gives no strength. Sequences can lack the tags named with a protein.

This assay deals with T1, FLAG-tagged CASP (human) (UniProt Q13948).
T1 sequence: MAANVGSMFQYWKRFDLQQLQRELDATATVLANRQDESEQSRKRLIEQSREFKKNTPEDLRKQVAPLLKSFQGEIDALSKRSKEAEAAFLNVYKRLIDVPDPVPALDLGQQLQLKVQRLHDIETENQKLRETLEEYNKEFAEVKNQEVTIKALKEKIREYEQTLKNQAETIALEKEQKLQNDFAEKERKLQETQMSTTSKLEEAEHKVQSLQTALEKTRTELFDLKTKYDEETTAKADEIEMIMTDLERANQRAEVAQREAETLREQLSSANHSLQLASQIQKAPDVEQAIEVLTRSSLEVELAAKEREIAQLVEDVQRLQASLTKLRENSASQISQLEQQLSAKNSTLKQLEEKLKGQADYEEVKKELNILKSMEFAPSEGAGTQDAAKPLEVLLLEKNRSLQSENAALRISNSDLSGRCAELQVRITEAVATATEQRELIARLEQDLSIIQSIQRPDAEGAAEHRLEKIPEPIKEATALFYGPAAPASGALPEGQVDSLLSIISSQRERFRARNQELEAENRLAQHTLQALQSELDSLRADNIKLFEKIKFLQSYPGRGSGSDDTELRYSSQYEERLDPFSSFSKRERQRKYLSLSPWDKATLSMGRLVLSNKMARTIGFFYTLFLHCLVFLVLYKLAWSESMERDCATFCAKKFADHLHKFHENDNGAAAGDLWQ
Nature of the assay: co-IP.

B1: mRFP-tagged CUX2 (protein, UniProt O14529 1-1486)
chain: MAANVGSMFQYWKRFDLRRLQKELNSVASELSARQEESEHSHKHLIELRREFKKNVPEEIREMVAPVLKSFQAEVVALSKRSQEAEAAFLSVYKQLIEAPDPVPVFEAARSLDDRLQPPSFDPSGQPRRDLHTSWKRNPELLSPKEQREGTSPAGPTLTEGSRLPGIPGKALLTETLLQRNEAEKQKGLQEVQITLAARLGEAEEKIKVLHSALKATQAELLELRRKYDEEAASKADEVGLIMTNLEKANQRAEAAQREVESLREQLASVNSSIRLACCSPQGPSGDKVNFTLCSGPRLEAALASKDREILRLLKDVQHLQSSLQELEEASANQIADLERQLTAKSEAIEKLEEKLQAQSDYEEIKTELSILKAMKLASSTCSLPQGMAKPEDSLLIAKEAFFPTQKFLLEKPSLLASPEEDPSEDDSIKDSLGTEQSYPSPQQLPPPPGPEDPLSPSPGQPLLGPSLGPDGTRTFSLSPFPSLASGERLMMPPAAFKGEAGGLLVFPPAFYGAKPPTAPATPAPGPEPLGGPEPADGGGGGAAGPGAEEEQLDTAEIAFQVKEQLLKHNIGQRVFGHYVLGLSQGSVSEILARPKPWRKLTVKGKEPFIKMKQFLSDEQNVLALRTIQVRQRGSITPRIRTPETGSDDAIKSILEQAKKEIESQKGGEPKTSVAPLSIANGTTPASTSEDAIKSILEQARREMQAQQQALLEMEVAPRGRSVPPSPPERPSLATASQNGAPALVKQEEGSGGPAQAPLPVLSPAAFVQSIIRKVKSEIGDAGYFDHHWASDRGLLSRPYASVSPSLSSSSSSGYSGQPNGRAWPRGDEAPVPPEDEAAAGAEDEPPRTGELKAEGATAEAGARLPYYPAYVPRTLKPTVPPLTPEQYELYMYREVDTLELTRQVKEKLAKNGICQRIFGEKVLGLSQGSVSDMLSRPKPWSKLTQKGREPFIRMQLWLSDQLGQAVGQQPGASQASPTEPRSSPSPPPSPTEPEKSSQEPLSLSLESSKENQQPEGRSSSSLSGKMYSGSQAPGGIQEIVAMSPELDTYSITKRVKEVLTDNNLGQRLFGESILGLTQGSVSDLLSRPKPWHKLSLKGREPFVRMQLWLNDPHNVEKLRDMKKLEKKAYLKRRYGLISTGSDSESPATRSECPSPCLQPQDLSLLQIKKPRVVLAPEEKEALRKAYQLEPYPSQQTIELLSFQLNLKTNTVINWFHNYRSRMRREMLVEGTQDEPDLDPSGGPGILPPGHSHPDPTPQSPDSETEDQKPTVKELELQEGPEENSTPLTTQDKAQVRIKQEQMEEDAEEEAGSQPQDSGELDKGQGPPKEEHPDPPGNDGLPKVAPGPLLPGGSTPDCPSLHPQQESEAGERLHPDPLSFKSASESSRCSLEVSLNSPSAASSPGLMMSVSPVPSSSAPISPSPPGAPPAKVPSASPTADMAGALHPSAKVNPNLQRRHEKMANLNNIIYRVERAANREEALEWEF
B1: the binding result is recorded as “binds”.
